From PMC7819943, “Rice protein-binding microarrays: a tool to detect cis-acting elements near promoter regions in rice” come the findings set out here.

The other results are listed elsewhere or left out.

The assay addresses T1, OsSMF1 (Oryza sativa, UniProt Q6ZLB0 1-436).
T1 sequence: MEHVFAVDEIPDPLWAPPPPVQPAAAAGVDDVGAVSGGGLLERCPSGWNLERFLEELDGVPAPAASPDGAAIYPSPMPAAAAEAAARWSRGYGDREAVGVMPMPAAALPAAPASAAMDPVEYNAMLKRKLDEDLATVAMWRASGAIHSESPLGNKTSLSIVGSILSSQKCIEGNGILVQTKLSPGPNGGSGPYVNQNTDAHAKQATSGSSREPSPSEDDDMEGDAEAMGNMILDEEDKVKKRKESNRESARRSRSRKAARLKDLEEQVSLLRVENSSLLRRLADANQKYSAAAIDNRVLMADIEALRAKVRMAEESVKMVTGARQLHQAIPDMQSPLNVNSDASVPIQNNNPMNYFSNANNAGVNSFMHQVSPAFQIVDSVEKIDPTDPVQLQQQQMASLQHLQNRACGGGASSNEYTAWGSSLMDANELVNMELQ
The experiment in a line: protein-binding microarray (RPBM); PBS, 2% BSA, 51.3 ng/ul salmon testes DNA, 50 uM zinc acetate, 200 nM TF, 25 C, 1 h; high values mean tight binding. The note with it: protein: recombinant; tags: N-terminal polyhistidine and DsRed monomer fusion (pET32a); chain copies: 2; label: CyDye5-dUTP incorporated in the synthesized complementary strand; 3' TTTTT single-stranded linker to array surface; dsDNA, one strand shown. In outline: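 The binding signal for each feature is its fluorescence intensity in arbitrary units. An Axon 4000B scanner was used to read a custom Agilent array that had been made double-stranded with Cy5-dUTP primer extension, blocked with 2% BSA, incubated at 25 °C for 1 h with 200 nM protein in PBS, 2% BSA, salmon testes DNA and 50 µM zinc acetate, and washed. The protein was an N-terminal polyhistidine–DsRed transcription factor fusion from E. coli BL21-CodonPlus, purified on Ni–NTA.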
For “CTTATTAACTCGGGATGATCTGTTGCACTGTCACTGACATCGGAGTCACCTAGTGCAG”, the binding signal is 5950 fluorescence intensity (a.u.).

“TGCTAAATTATTTGCCACTGAACCCACGTGTCATAGACGTCGGAGTCACCTAGTGCAG”: the binding signal is 15000 fluorescence intensity (a.u.).

Regarding “TTCAGTCACTACAATGCGATCCTGGGCACATGTTTCCTTTCGGAGTCACCTAGTGCAG”, the binding signal is 3400 fluorescence intensity (a.u.).

In the case of “CATATAGAACTGTCCGTGAAGTGTCCTTACATGATCATTTCGGAGTCACCTAGTGCAG”, the binding signal is 24800 fluorescence intensity (a.u.).

“CACAGTTCGGATCCGACCACTCCACGTCTCCACCCGGCCGCGGAGTCACCTAGTGCAG”: the binding signal was 4440 fluorescence intensity (a.u.).

On to “CATGCGATACTACCCCAACGGCCTCGACGACGGCTGCGCCCGGAGTCACCTAGTGCAG”, for which the binding signal is 26900 fluorescence intensity (a.u.).

As for “TTGGTAAAGAAATTTGCCATAGCAACTCTGGTTCTAAGCACGGAGTCACCTAGTGCAG”, the binding signal was 3590 fluorescence intensity (a.u.).

As for “CGTATCGTTAAAGATATCCTCTGACAAAATTACATACCAGCGGAGTCACCTAGTGCAG”, the binding signal is 3240 fluorescence intensity (a.u.).

In the case of “CTGAACTATATTTGACGTGTTCCTCCAATTTCCAACCAAACGGAGTCACCTAGTGCAG”, the binding signal was 4140 fluorescence intensity (a.u.).

For “AGATGAGATGAGATGAGTCATGGCCCATGAGTGGTTGATGCGGAGTCACCTAGTGCAG”, the binding signal is 5710 fluorescence intensity (a.u.).

As for “AACCATGGAAGGGAGCCGACCGGACCACCTCACCACCGCGCGGAGTCACCTAGTGCAG”, the binding signal is 4070 fluorescence intensity (a.u.).

In the case of “TAATGGCAGTAGCTGCTGGTGGTCGTCATACATTAGCACTCGGAGTCACCTAGTGCAG”, the binding signal was 3280 fluorescence intensity (a.u.).

In the case of “CCTACTCACGCCGTGTCAGACGTTATGTGCCGTGTGAGTTCGGAGTCACCTAGTGCAG”, the binding signal was 4330 fluorescence intensity (a.u.).

In the case of “ATAGCATCCTGTACACTCAAGTCATCCCTGACACACACACCGGAGTCACCTAGTGCAG”, the binding signal was 3850 fluorescence intensity (a.u.).

On to “CTCAATTTCAGGACACATTCGTCGGTGGCATCACCACTACCGGAGTCACCTAGTGCAG”, for which the binding signal was 3250 fluorescence intensity (a.u.).

Take “GCGCCCGTCTTCACTGACGCAAGCAGTGACACACGAATTCCGGAGTCACCTAGTGCAG”: the binding signal was 4840 fluorescence intensity (a.u.).

Consider “CATGTTTGTGAAGTGACGTATTACATATTGATCTATTTGACGGAGTCACCTAGTGCAG”, for which the binding signal was 8700 fluorescence intensity (a.u.).

In the case of “TCCGAATCCTACAAGGTCGCCGCTGTCATTATCCGATTCGCGGAGTCACCTAGTGCAG”, the binding signal was 3720 fluorescence intensity (a.u.).

With “CTCAAGCTTTATGCCGCTATACTGATAGGCTAGATTAGGTCGGAGTCACCTAGTGCAG”, the binding signal was 4280 fluorescence intensity (a.u.).

Regarding “TATGCGACACCCTATATAATATCCGATGTGGCACGCTAAACGGAGTCACCTAGTGCAG”, the binding signal was 5440 fluorescence intensity (a.u.).

For “AACCAGCGAACCAATTATAGGCAACCTCATTTCCTTGTTGCGGAGTCACCTAGTGCAG”, the binding signal is 3520 fluorescence intensity (a.u.).

For the sequence “TGGATCTCATTTCAGGCCCATCCAACTTGAAAGCTACTAGCGGAGTCACCTAGTGCAG”, the binding signal is 29700 fluorescence intensity (a.u.).

As for “TATCATATGTATCAAGAAACACCTCATCATTTTCCATCGCCGGAGTCACCTAGTGCAG”, the binding signal was 5920 fluorescence intensity (a.u.).

As to “GCGCGCGCGCGCATTAGCGACACCCAGTATATAATCTGTACGGAGTCACCTAGTGCAG”, the binding signal was 4010 fluorescence intensity (a.u.).

Take “TGGGATGAAGGAAATATACTTAGTATTGTTTAGCAATTTTCGGAGTCACCTAGTGCAG”: the binding signal is 28300 fluorescence intensity (a.u.).

Take “CGGTGGAGATCCACCAATCAGAAGGCGCCACGTAGCCTTGCGGAGTCACCTAGTGCAG”: the binding signal was 10300 fluorescence intensity (a.u.).

For “TATCGCATTATTTTATGGCGATGTCATAGAGGTACTGTTACGGAGTCACCTAGTGCAG”, the binding signal was 3170 fluorescence intensity (a.u.).

For the sequence “GCGAGGGGCGGGGAGAGCAGCGGCGGCGGCGGAGCGCGGCCGGAGTCACCTAGTGCAG”, the binding signal is 39200 fluorescence intensity (a.u.).

With “AAAATGTGAATCTTTTGTATAGCCAGCTTCTTCTAAAACACGGAGTCACCTAGTGCAG”, the binding signal was 24900 fluorescence intensity (a.u.).

Take “TTTTAATTTTGGTGTGAACCAACCACCACTGAAGACCTGTCGGAGTCACCTAGTGCAG”: the binding signal is 23800 fluorescence intensity (a.u.).

Take “GCGGTGGCGGTTGGGGTGGCGAGTGGGGAGGAGGAGGCGGCGGAGTCACCTAGTGCAG”: the binding signal is 5880 fluorescence intensity (a.u.).

In the case of “GGTGATCGCCGGGGTTCCTGATGTCGTTACCAACGCCGCGCGGAGTCACCTAGTGCAG”, the binding signal was 3280 fluorescence intensity (a.u.).

On to “TTAACACGGACACGCCACACTCTGACCACAGCTCACATTCCGGAGTCACCTAGTGCAG”, for which the binding signal is 3630 fluorescence intensity (a.u.).

As to “CATACCGGGTCGGATGCGGCCTCCGCGTCCGCGTCCGCGACGGAGTCACCTAGTGCAG”, the binding signal is 3260 fluorescence intensity (a.u.).

For “GGTGCCCGGGCACCATGGTGCCCCATATGAGTGTCATATACGGAGTCACCTAGTGCAG”, the binding signal is 3570 fluorescence intensity (a.u.).

For “GGAGAGACTCAGAGAGGAGGCGTGTTGGTTAGCTCATTGGCGGAGTCACCTAGTGCAG”, the binding signal was 4190 fluorescence intensity (a.u.).

In the case of “AGGGAATTTGAAGGAGGGGCCTGGAGGAGGAGGAGGAGGCCGGAGTCACCTAGTGCAG”, the binding signal is 3420 fluorescence intensity (a.u.).

For “TGCACTTGCATATTTGCTGCGTGGCTTGCTGAGTATGTCACGGAGTCACCTAGTGCAG”, the binding signal was 5020 fluorescence intensity (a.u.).

In the case of “AGTGCGTGCAATAATAACTAGGATGTAGGAGTACTACTCACGGAGTCACCTAGTGCAG”, the binding signal is 3240 fluorescence intensity (a.u.).

As to “GTTCGAGGTGCTCGCCGCGTCAACCATCCCGAGGATGTACCGGAGTCACCTAGTGCAG”, the binding signal was 3280 fluorescence intensity (a.u.).

As for “CGACTTCGTTTTATGACACGTGGGCCCGCAGAAGGAGAACCGGAGTCACCTAGTGCAG”, the binding signal was 9040 fluorescence intensity (a.u.).

As for “TATTACAAATATTGTGAATAATTGCTCTTGTGCTAAGAGACGGAGTCACCTAGTGCAG”, the binding signal was 32100 fluorescence intensity (a.u.).
